Results are given in words; binding and its absence hold for the method and conditions named. In cells and extracts the contact can be indirect. Some binding calls cover weakened binding; strength is not graded here.
Target: hypoxia-inducible factor-1α (human (endogenous in BxPC-3/PANC-1)) (UniProt Q16665)
Assay: co-IP; lysates of BxPC-3/PANC-1 cells (Figure 5E legend: BxPC-3/SW1990) under hypoxia for 24 h, transfected with siNC or siZEB1-AS1, with or without ZEB1-OE; immunoprecipitation with anti-HIF-1α or anti-ZEB1 overnight at 4°C, Protein A/G PLUS-Agarose, Western blot

The chains behind the UniProt entries cited, without tags or fusion partners.
UniProt Q16665: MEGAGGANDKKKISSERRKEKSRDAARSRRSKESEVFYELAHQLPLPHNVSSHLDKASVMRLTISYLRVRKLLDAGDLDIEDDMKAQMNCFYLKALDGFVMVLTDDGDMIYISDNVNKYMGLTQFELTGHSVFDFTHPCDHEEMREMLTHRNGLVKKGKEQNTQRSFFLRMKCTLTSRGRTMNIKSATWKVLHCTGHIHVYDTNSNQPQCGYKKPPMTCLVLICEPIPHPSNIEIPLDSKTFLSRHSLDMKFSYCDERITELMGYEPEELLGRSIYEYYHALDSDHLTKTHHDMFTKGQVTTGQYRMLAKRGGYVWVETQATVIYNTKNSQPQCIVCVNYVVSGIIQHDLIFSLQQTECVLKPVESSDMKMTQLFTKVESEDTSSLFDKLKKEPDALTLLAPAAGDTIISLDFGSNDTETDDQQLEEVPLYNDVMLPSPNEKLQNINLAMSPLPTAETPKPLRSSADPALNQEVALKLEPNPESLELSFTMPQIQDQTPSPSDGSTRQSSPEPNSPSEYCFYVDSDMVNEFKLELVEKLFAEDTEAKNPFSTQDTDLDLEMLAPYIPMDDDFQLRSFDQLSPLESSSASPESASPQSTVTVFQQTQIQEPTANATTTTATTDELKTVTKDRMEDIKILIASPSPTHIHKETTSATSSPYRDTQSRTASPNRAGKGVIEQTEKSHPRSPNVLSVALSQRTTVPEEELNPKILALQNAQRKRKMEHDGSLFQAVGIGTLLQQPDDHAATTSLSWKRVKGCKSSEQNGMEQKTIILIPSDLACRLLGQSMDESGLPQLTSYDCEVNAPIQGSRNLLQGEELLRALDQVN

binding: binds
B1: zinc finger E-box-binding homeobox 1 (protein, UniProt P37275 1-1124)
chain: MADGPRCKRRKQANPRRNNVTNYNTVVETNSDSDDEDKLHIVEEESVTDAADCEGVPEDDLPTDQTVLPGRSSEREGNAKNCWEDDRKEGQEILGPEAQADEAGCTVKDDECESDAENEQNHDPNVEEFLQQQDTAVIFPEAPEEDQRQGTPEASGHDENGTPDAFSQLLTCPYCDRGYKRFTSLKEHIKYRHEKNEDNFSCSLCSYTFAYRTQLERHMTSHKSGRDQRHVTQSGCNRKFKCTECGKAFKYKHHLKEHLRIHSGEKPYECPNCKKRFSHSGSYSSHISSKKCISLIPVNGRPRTGLKTSQCSSPSLSASPGSPTRPQIRQKIENKPLQEQLSVNQIKTEPVDYEFKPIVVASGINCSTPLQNGVFTGGGPLQATSSPQGMVQAVVLPTVGLVSPISINLSDIQNVLKVAVDGNVIRQVLENNQANLASKEQETINASPIQQGGHSVISAISLPLVDQDGTTKIIINYSLEQPSQLQVVPQNLKKENPVATNSCKSEKLPEDLTVKSEKDKSFEGGVNDSTCLLCDDCPGDINALPELKHYDLKQPTQPPPLPAAEAEKPESSVSSATGDGNLSPSQPPLKNLLSLLKAYYALNAQPSAEELSKIADSVNLPLDVVKKWFEKMQAGQISVQSSEPSSPEPGKVNIPAKNNDQPQSANANEPQDSTVNLQSPLKMTNSPVLPVGSTTNGSRSSTPSPSPLNLSSSRNTQGYLYTAEGAQEEPQVEPLDLSLPKQQGELLERSTITSVYQNSVYSVQEEPLNLSCAKKEPQKDSCVTDSEPVVNVIPPSANPINIAIPTVTAQLPTIVAIADQNSVPCLRALAANKQTILIPQVAYTYSTTVSPAVQEPPLKVIQPNGNQDERQDTSSEGVSNVEDQNDSDSTPPKKKMRKTENGMYACDLCDKIFQKSSSLLRHKYEHTGKRPHECGICKKAFKHKHHLIEHMRLHSGEKPYQCDKCGKRFSHSGSYSQHMNHRYSYCKREAEERDSTEQEEAGPEILSNEHVGARASPSQGDSDERESLTREEDEDSEKEEEEEDKEMEELQEEKECEKPQGDEEEEEEEEEVEEEEVEEAENEGEEAKTEGLMKDDRAESQASSLGQKVGESSEQVSEEKTNEA

Reference: publication PMC8645903
